From patent US4816438A, “Insulin-selective somatostatin analogs” (The Salk Institute for Biological Studies, priority 1987, dated 1989)
Not every detail of the peptide structures is certain; ends, links or a residue may be inferred. Where a SMILES comes first, the peptide text is derived from it. Bridges are numbered along the chain shown (N, C = ends). [ ]: non-standard residue; d: D form. Lys(5R-OH) = NC[C@H](O)CC[C@H](N)C(=O)O

Columns and labels:
[1] = tested on: insulin secretion by the pancreas; experiment: in vivo inhibition of insulin (and glucagon) secretion, potency relative to somatostatin-14; set-up: species or system rats
[2] = tested on: cells of rat pituitary glands; experiment: in vitro radioimmunoassays of growth hormone release from cultured rat pituitary cells, side-by-side with somatostatin-14; type: cell-based
Method: To determine the effectiveness of the peptides to inhibit the release of insulin, in vitro radioimmunoassays are carried out using aSS-28, [Lys^23 ]-aSS-28 and aSS(15-28) in side-by-side comparison with equimolar concentrations of somotostatin-14 having a known effectiveness to inhibit the release of growth hormone induced by the application of isobutyl methyl xanthine to pituitary cells. Cultures are used which include cells of rat pituitary glands removed some four to five days previously in a system that minimizes enzymatic degradation, generally following the procedure set forth in Vale et al., Methods in Enzymology, Hormones and Cyclic Nucleotides (1975) Vol. 37, p. 82. Both cultures of a defined standard medium and cultures which are considered optimal for the secretion of growth hormone, as a result of having additions of either 2% or 10% of serum from a foetal calf, are used for the comparative testing.

Question: Which results are given for `CC(C)C[C@H](NC(=O)[C@H](CC(N)=O)NC(=O)[C@H](CC(N)=O)NC(=O)[C@@H](NC(=O)[C@H](CO)NC(=O)[C@H](CC(=O)O)NC(=O)[C@@H](NC(=O)[C@@H](N)CO)C(C)C)[C@@H](C)O)C(=O)N1CCC[C@H]1C(=O)N1CCC[C@H]1C(=O)N[C@@H](CCCNC(=N)N)C(=O)N[C@@H](CCC(=O)O)C(=O)N[C@@H](CCCNC(=N)N)C(=O)N[C@@H](CCCCN)C(=O)N[C@@H](C)C(=O)NCC(=O)N[C@H]1CSSC[C@@H](C(=O)O)NC(=O)[C@H](CO)NC(=O)[C@H]([C@@H](C)O)NC(=O)[C@H](Cc2ccccc2)NC(=O)CNC(=O)[C@H](CC[C@@H](O)CN)NC(=O)[C@H](Cc2c[nH]c3ccccc23)NC(=O)[C@H](Cc2ccc(O)cc2)NC(=O)[C@H](Cc2ccccc2)NC(=O)[C@H](CC(N)=O)NC(=O)[C@H](CCCCN)NC1=O` [aSS-28] (H-SVDSTNNLPPRERKAGCKNFYW[Lys(5R-OH)]GFTSC-OH; disulfide 17-28)?
Answer: potency in inhibiting the secretion of insulin by the pancreas ([1]; compared with somatostatin-14 and somatostatin-28): more potent than either somatostatin-14 or somatostatin-28; potency to inhibit basal and stimulated insulin secretion ([1]; in mammals, including humans and dogs): increased potency; insulin-selectivity ([1]; selective inhibition of insulin release): extreme insulin-selectivity; inhibition of GH ([2]; GH release induced by isobutyl methyl xanthine, equimolar comparison with SS-14): substantially less than SS-14; insulin selectivity inferred from the comparative GH testing ([2]; inferred from lower GH inhibition than SS-14): likely insulin-selective

Question: How did the “biological activity / potency relative to aSS-28” value ([2]; comparative testing in rat pituitary cell cultures) turn out when `C[C@H](N)C(=O)NCC(=O)N[C@H]1CSSC[C@@H](C(=O)O)NC(=O)[C@H](CO)NC(=O)[C@H]([C@@H](C)O)NC(=O)[C@H](Cc2ccccc2)NC(=O)CNC(=O)[C@H](CC[C@@H](O)CN)NC(=O)[C@H](Cc2c[nH]c3ccccc23)NC(=O)[C@H](Cc2ccc(O)cc2)NC(=O)[C@H](Cc2ccccc2)NC(=O)[C@H](CC(N)=O)NC(=O)[C@H](CCCCN)NC1=O` [aSS(15-28)] (H-AGCKNFYW[Lys(5R-OH)]GFTSC-OH; disulfide 3-14) was run?
Answer: Its value is “similarly biologically active although having somewhat lower potencies”.
